Reference: patent publication EP4341264B1, “PYRROLOPIRIMIDINE DERIVATIVES AND THEIR USE IN THE TREATMENT OF LEISHMANIASIS” (Drugs for Neglected Diseases Initiative, priority 2021, dated 2022)

Tests used:
[1] = system: L. infantum (MHOM/MA/67/ITMAP263); assay: Intracellular amastigote susceptibility assay (primary peritoneal mouse macrophages); type: cell-based; conditions: selectivity index (CC50/IC50)
Description: (§1) To obtain primary peritoneal macrophages, Swiss mice were stimulated by intraperitoneal injection of 1 mL 2% starch in PBS 48 h prior to cell collection. Animals were euthanized with a CO2 overdose and upon removal of the skin, 10 mL of RPMI-1640 (Life Technologies) was injected into the peritoneal cavity to collect the macrophages that were then seeded into 96-well plates at a final concentration of 30,000 cells/well in 100 µL of RPMI-1640 macrophage medium, supplemented with 5% iFCS, 2% penicillin/streptomycin and 1% L-glutamine (Life technologies). After 24 h, the cells were infected with spleen derived L. infantum (MHOM/MA(BE)/67/ITMAP263) or L. donovani (MHOM/ET/67/L82) amastigotes obtained from heavily infected donor hamsters. The amastigotes were purified using two centrifugation steps and diluted to obtain an infection ratio of 5:1 in RPMI-1640 cell culture medium. After incubation for 2 h, compound dilutions were added. Drug activity was evaluated after a 96-h incubation period without washing of the cells and without renewal of the drugged culture medium. Cells were stained with Giemsa for microscopic evaluation of cellular amastigote burdens. Percentage reduction compared to the burdens in the infected non-treated control wells was used as a measure for drug activity.

[2] = system: L. donovani (MHOM/ET/67/L82); assay: as above; type: cell-based; conditions: selectivity index (CC50/IC50)
Description: as §1

**Q.** With `COc1nc(OCC(F)(F)F)cnc1-c1c(C)[nH]c2nc(N)nc(C)c12` [Compound C3, 5-[3-methoxy-5-(2,2,2-trifluoroethoxy)pyrazin-2-yl]-4,6-dimethyl-7H-pyrrolo[2,3-d]pyrimidin-2-amine] as the compound, how does the SI [1] read?
**A.** >40

**Q.** What about the SI [2] of the same compound?
**A.** >51

**Q.** How did the SI [1] turn out when `Cc1[nH]c2nc(N)nc(C)c2c1-c1ccc(C#N)c2c1OCO2` [Compound C4, 7-(2-amino-4,6-dimethyl-7H-pyrrolo[2,3-d]pyrimidin-5-yl)-1,3-benzodioxole-4-carbonitrile] was run?
**A.** >417

**Q.** And the SI [2]?
**A.** >360

**Q.** Which SI [1] does the source give for `COc1cc(C#N)ccc1-c1c(C)[nH]c2nc(N)nc(C)c12` [Compound C1, 4-(2-amino-4,6-dimethyl-7H-pyrrolo[2,3-d]pyrimidin-5-yl)-3-methoxybenzonitrile] here?
**A.** >74

**Q.** What about the SI [2] of the same compound?
**A.** >63
